# Values joined by “and” are separate entries in the source; they are usually repeats but may differ in a detail not shown here. Equal values may be shown once. The inconclusive results got no clear call from the source; some entries with a clear call stand among them for comparison. For some of these results: Potencies beside an inconclusive call are fits to weak or partial responses and may not hold up. For some of these results: A note “side channel” means that the fit belongs to a control or component signal, not to the main read-out. Active and inactive are the calls of the source. Unless noted, calls come from the whole dose curve; as a rule, active = well fitted curve in the direction sought with a large enough effect; inconclusive = small, poorly fitted or top-dose-only effect, or another doubt; inactive = no such curve, though single readings can be large; an effect the other way counts as inactive or inconclusive.
# The chains behind the UniProt entries cited, without tags or fusion partners. Where a name states a change or a piece, a line headed by the entry shows the natural chain unless it says otherwise.
# UniProt Q03181: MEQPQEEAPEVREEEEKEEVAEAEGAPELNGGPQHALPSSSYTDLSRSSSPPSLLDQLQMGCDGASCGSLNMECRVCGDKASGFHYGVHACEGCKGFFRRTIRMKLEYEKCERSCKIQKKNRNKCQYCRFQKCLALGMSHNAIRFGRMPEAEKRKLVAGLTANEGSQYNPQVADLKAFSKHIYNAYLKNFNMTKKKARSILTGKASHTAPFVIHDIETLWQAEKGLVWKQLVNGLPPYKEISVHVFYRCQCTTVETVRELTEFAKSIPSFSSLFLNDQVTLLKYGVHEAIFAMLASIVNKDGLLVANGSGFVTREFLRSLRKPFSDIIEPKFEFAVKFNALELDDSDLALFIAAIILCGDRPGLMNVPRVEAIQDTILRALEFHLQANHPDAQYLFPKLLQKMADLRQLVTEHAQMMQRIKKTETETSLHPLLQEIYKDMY
# UniProt P10828: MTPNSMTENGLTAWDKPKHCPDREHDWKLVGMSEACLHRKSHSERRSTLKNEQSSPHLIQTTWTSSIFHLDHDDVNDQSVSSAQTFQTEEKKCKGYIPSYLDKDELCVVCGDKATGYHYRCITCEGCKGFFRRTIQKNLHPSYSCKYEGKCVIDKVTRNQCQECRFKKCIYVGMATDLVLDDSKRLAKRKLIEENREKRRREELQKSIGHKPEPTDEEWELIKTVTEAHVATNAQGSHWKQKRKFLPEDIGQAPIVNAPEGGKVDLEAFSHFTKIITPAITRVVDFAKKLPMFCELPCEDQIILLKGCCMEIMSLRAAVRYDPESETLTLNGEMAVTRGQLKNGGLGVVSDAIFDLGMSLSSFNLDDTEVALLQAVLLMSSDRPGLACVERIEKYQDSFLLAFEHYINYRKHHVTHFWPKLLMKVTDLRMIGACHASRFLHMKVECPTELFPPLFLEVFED
# UniProt P19793: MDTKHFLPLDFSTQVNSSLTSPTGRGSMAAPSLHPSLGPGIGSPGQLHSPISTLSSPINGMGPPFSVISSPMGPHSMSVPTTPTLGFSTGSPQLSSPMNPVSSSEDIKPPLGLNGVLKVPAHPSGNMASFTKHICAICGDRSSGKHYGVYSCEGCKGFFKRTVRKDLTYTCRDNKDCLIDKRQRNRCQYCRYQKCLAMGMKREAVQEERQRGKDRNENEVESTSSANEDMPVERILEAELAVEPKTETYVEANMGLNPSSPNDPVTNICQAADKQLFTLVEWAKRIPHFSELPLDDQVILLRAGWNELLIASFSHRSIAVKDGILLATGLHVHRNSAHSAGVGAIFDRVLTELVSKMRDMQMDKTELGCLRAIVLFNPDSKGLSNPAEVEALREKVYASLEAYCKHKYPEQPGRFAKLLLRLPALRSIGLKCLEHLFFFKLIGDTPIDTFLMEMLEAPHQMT
# UniProt P03372, whole entry, looked up: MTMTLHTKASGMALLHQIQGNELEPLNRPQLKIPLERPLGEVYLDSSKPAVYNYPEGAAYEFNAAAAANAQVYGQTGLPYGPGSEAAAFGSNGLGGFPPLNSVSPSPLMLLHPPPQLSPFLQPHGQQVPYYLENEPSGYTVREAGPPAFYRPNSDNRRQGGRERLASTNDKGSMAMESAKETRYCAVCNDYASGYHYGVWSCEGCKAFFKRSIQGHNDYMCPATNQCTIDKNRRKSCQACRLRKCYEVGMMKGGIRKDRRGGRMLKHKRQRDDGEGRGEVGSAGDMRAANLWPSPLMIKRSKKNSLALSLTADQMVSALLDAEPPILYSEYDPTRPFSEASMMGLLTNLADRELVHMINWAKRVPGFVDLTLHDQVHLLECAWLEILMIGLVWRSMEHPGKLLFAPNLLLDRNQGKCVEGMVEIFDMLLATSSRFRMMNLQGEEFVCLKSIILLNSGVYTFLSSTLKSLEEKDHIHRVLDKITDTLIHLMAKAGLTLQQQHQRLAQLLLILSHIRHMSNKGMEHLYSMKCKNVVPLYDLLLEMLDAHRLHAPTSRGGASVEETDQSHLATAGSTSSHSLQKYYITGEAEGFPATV
# How the values were obtained:
# [1] = MultiTox-Fluor Cytotoxicity Assay - LYMP1-001 - Live Cells (AID 947); note: potency is the fitted concentration of half-maximal effect
# [2] = Cell Viability - LYMP2-005 (AID 967); note: potency is the fitted concentration of half-maximal effect
# Method in brief: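 qHTS viability screen in LYMP2-005 cells: 24 h at 37 C with compound, ATP luminescence via CellTiter-Glo, AC50 from Hill curves.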
# [3] = molecular target: Glucocorticoid receptor (Homo sapiens) (UniProt P04150); assay: qHTS assay for small molecule antagonists of glucocorticoid receptor signaling (AID 588533; active = well fitted inhibition curve with a large enough effect in the signal ratio, with a control signal flat, not every such curve was filed as active; inconclusive = small, poorly fitted or top-dose-only effect, or effect the other way, or a change in a side signal; the % refers to the signal ratio;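 note: cells stimulated with 2 nM dexamethasone as agonist; % is set by controls: 0 for no effect and ±100 for the full control effect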); conditions: HeLa MMTV-bla, GRE beta-lactamase ratio, antagonist mode, 18 h; activity change, negative = inhibition: at 76.8 µM (top of the series)
# [4] = molecular target: Peroxisome proliferator-activated receptor delta (Homo sapiens) (UniProt Q03181); assay: qHTS assay for small molecule antagonists of peroxisome proliferator-activated receptor delta signaling (AID 588535; active = well fitted inhibition curve with a large enough effect in the signal ratio, with a control signal flat, not every such curve was filed as active; inconclusive = small, poorly fitted or top-dose-only effect, or effect the other way, or a change in a side signal; inactive = no such curve, though single readings can be large or run the other way; the % refers to the signal ratio; note: potency is the fitted concentration of half-maximal effect); conditions: HEK293T PPARd-UAS-bla, beta-lactamase FRET ratio, 18 h; activity change, negative = inhibition: at 76.7 µM (top of the series)
# Method in brief: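 Beta-lactamase reporter read-out (405 nm excitation, 460/530 nm emission) after CCF4 loading for 2 hrs at RT. HEK293T PPAR-delta-UAS-bla cells, 2% charcoal/dextran FBS, compounds for 18 hrs at 37 C. Hill fit gave IC50 and efficacy.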
# [5] = molecular target: Peroxisome proliferator-activated receptor gamma (Homo sapiens) (UniProt P37231); assay: qHTS assay for small molecule antagonists of peroxisome proliferator-activated receptor gamma signaling (AID 588537; active = well fitted inhibition curve with a large enough effect in the signal ratio, with a control signal flat, not every such curve was filed as active; inconclusive = small, poorly fitted or top-dose-only effect, or effect the other way, or a change in a side signal; the % refers to the signal ratio; note: potency is the fitted concentration of half-maximal effect;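 for activity, negative = inhibition: reporter cells co-stimulated with 50 nM rosiglitazone agonist during compound treatment; % of control where 0% means no effect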); conditions: HEK293 PPARg-UAS-bla, beta-lactamase ratio, antagonist mode; activity, negative = inhibition: at 76.8 µM (top of the series)
# Method in brief: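 Read-out: CCF4 fluorescence (ex 405, em 460/530 nm) after 2 h at RT. Cells were HEK293 carrying a UAS-bla reporter and treated 16 h at 37 C with compound plus rosiglitazone (50 nM final). Normalized to rosiglitazone and DMSO.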
# [6] = qHTS assay for small molecule agonists of the antioxidant response element (ARE) signaling pathway (AID 651741; active = well fitted activation curve with a large enough effect in the signal ratio; inconclusive = small, poorly fitted or top-dose-only effect, or effect the other way, or a change in a side signal; the % refers to the signal ratio; note: potency is the fitted concentration of half-maximal effect; for activation: % of control where 0% means no effect); conditions: HepG2 ARE-bla reporter, beta-lactamase FRET ratio, 16 h; activation: at 96 µM (top of the series)
# Method in brief: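 HepG2 ARE-bla reporter cells, 2,000/well; 5 h settle at 37 C/5% CO2; compound pin transfer (23 nL, DMSO); 16 h at 37 C; LiveBLAzer B/G FRET substrate, 2 h RT; fluorescence intensity read.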
# [7] = qHTS assay to identify small molecules that stimulate interleukin-8 (IL-8) secretion (AID 651758; active = well fitted activation curve with a large enough effect in the signal ratio; inconclusive = small, poorly fitted or top-dose-only effect, or effect the other way, or a change in a side signal; the % refers to the signal ratio; note: potency is the fitted concentration of half-maximal effect; for activation: 0% is about no effect); conditions: HTRF ratio (665/615); activation: at 92.2 µM (top of the series)
# Method in brief: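 Compounds are added to THP-1 cells (2000 per well) and left 16 hrs at 37 C. A labeled anti-IL-8 antibody pair is then added, and IL-8 secretion is measured by time-resolved FRET after 1-3 hrs at room temperature.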
# [8] = Cell Viability - Hek293 (AID 427;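 active = compounds whose dose-response curve shows a full or clear partial loss of cell viability, called from curve shape rather than a numeric limit; inconclusive = weak partial curves or an effect only at the top dose; inactive = no dose-dependent loss of viability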;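 note: potency is the fitted concentration of half-maximal effect; cells exposed to compound for 40 hours at 37 °C before reading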); conditions: qHTS
# Method in brief: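 Luminescent ATP read-out (CellTiter-Glo, 20 min RT) after 40 hr compound exposure at 37 °C in complete medium. Signal normalized to DMSO (basal) and 100 uM tamoxifen (100% inhibition); concentration-response fitted with the standard Hill equation to give AC50.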
# [9] = Cell Viability - H-4-II-E (AID 543);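 note: cells exposed to compound for 40 hours; nearly all actives have a fitted effect of over 35% in size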; note: potency is the fitted concentration of half-maximal effect
# Method in brief: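 qHTS, rat hepatoma H-4-II-E, 1500 cells/well; 40 hr compound exposure, 37 °C; CellTiter-Glo ATP luminescence after 20 min RT; AC50 by standard Hill fit.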
# [10] = molecular target: Peroxisome proliferator-activated receptor gamma (Homo sapiens) (UniProt P37231); assay: qHTS assay for small molecule agonists of peroxisome proliferator-activated receptor gamma signaling (AID 588536; active = well fitted curve in the direction sought with a large enough effect in the signal ratio, with a control signal flat, not every such curve was filed as active; inconclusive = small, poorly fitted or top-dose-only effect, or effect the other way, or a change in a side signal; inactive = no such curve, though single readings can be large or run the other way; the % refers to the signal ratio; note: potency is the fitted concentration of half-maximal effect;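 for activation: 0% = DMSO basal wells and 100% = rosiglitazone at 2 µM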); conditions: HEK293 PPARg-UAS-bla, beta-lactamase ratio, 16 h; activation: at 76.7 µM (top of the series), percent of rosiglitazone response, DMSO as zero
# Method in brief: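 Compound treatment: 16 h, 37 C, HEK293 GeneBLAzer cells. Detection: CCF4, 2 h RT. Values: Hill-fit EC50, efficacy as % of 2 uM rosiglitazone.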
# [11] = molecular target: Thyroid hormone receptor beta (Homo sapiens) (UniProt P10828); assay: qHTS assay for small molecule antagonists of thyroid hormone receptor beta signaling (AID 588547; active = well fitted inhibition curve with a large enough effect in the signal ratio, with a control signal flat, not every such curve was filed as active; inconclusive = small, poorly fitted or top-dose-only effect, or effect the other way, or a change in a side signal; the % refers to the signal ratio;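 note: cells stimulated with 0.4 nM T3 agonist during compound exposure; % is set by controls: 0 for no effect and ±100 for the full control effect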); conditions: TR-UAS-bla HEK293, beta-lactamase ratio, antagonist mode, 18 h
# Method in brief: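 TR-UAS-bla GripTite HEK293 cells in 2% charcoal/dextran FBS medium; compounds 0.59 nM to 92 uM with T3 at 0.4nM final, 18 h at 37 C. Beta-lactamase read by CCF4 fluorescence (460/530 nm); Hill fits gave IC50 and efficacy.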
# [12] = qHTS assay for small molecule antagonists of the retinoid-related orphan receptor gamma (ROR-gamma) signaling pathway - cell viability counter screen (AID 720652; active = well fitted curve in the direction sought with a large enough effect in the repeat runs; inconclusive = weak or mixed curves; inactive = no such curve, though single readings can be large; an effect the other way counts as inactive or inconclusive;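 note: potency is the fitted concentration of half-maximal effect; compound exposure lasted 16 hr before ATP read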)
# Method in brief: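 CHO RORE-LUC/TET-ROR line, 1,000 cells/well, 37 C 5% CO2 5 hr; cpd or DMSO + doxycycline induction, 16 hr. CellTiter-Glo, 30 min RT, luminescence = ATP content.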
# [13] = qHTS assay for small molecule agonists of the antioxidant response element (ARE) signaling pathway measured by Nrf2-dependant transcriptional activity (AID 720636; active = well fitted curve in the direction sought with a large enough effect in the repeat runs; inconclusive = weak or mixed curves; inactive = no such curve, though single readings can be large; an effect the other way counts as inactive or inconclusive; note: potency is the fitted concentration of half-maximal effect)
# Method in brief: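 Nrf2-dependent transcription is measured in ARE-luc HepG2 cells: compound is applied for 16 hr at 37 C after a 6 hr attachment period, and luciferase activity is quantified by luminescence using ONE-Glo.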
# [14] = molecular target: Retinoic acid receptor RXR-alpha (Homo sapiens) (UniProt P19793); assay: qHTS assay for small molecule agonists of retinoid X receptor alpha signaling (AID 588544; calls by dose curve; note: potency is the fitted concentration of half-maximal effect;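 for activation: 0% = DMSO basal wells and 100% = reference agonist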); conditions: HEK293T RXRa-UAS-bla, beta-lactamase reporter, 18 h; activation: at 76.7 µM (top of the series)
# [15] = MultiTox-Fluor Cytotoxicity Assay - LYMP1-002 - Dead Cells (AID 960); conditions: LYMP1-002 lymphoblastoid cells, dead-cell protease fluorescence; cytotoxicity (dead cells): at 46.1 µM (top of the series); note: potency is the fitted concentration of half-maximal effect; nearly all actives have a fitted effect of over 60% in size
# Method in brief: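 Readout: fluorescence at 485/520 from cell-impermeant bis-AAF-R110 cleaved by proteases leaking from damaged cells. LYMP1-002 lymphoblastoid line, 16 hr compound treatment at 37 C, concentration-response in qHTS format; Hill-equation AC50 values.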
# [16] = molecular target: Estrogen receptor (Homo sapiens) (UniProt P03372); assay: qHTS assay for small molecule agonists of estrogen receptor alpha signaling (AID 588514; calls by dose curve; note: potency is the fitted concentration of half-maximal effect; nearly all actives have a fitted effect of over 70% in size); conditions: ER-alpha-UAS-bla HEK293, beta-lactamase ratio, 18 h; activation: at 76.8 µM (top of the series), percent of full estradiol response, vehicle zero unless noted
# Method in brief: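 Read-out: CCF4 fluorescence from a beta-lactamase reporter in ER-alpha-UAS-bla HEK 293 cells after 18 hrs of compound exposure at 37 C. Normalized to 20 nM 17-beta-estradiol (100%) and DMSO (0%).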
# [17] = molecular target: Estrogen receptor (Homo sapiens) (UniProt P03372); assay: qHTS assay for small molecule antagonists of estrogen receptor alpha signaling (AID 588513; active = well fitted curve in the direction sought with a large enough effect in the signal ratio, with a control signal flat, not every such curve was filed as active; inconclusive = small, poorly fitted or top-dose-only effect, or effect the other way, or a change in a side signal; inactive = no such curve, though single readings can be large or run the other way; the % refers to the signal ratio; note: % is set by controls: 0 for no effect and ±100 for the full control effect); conditions: ER-alpha-UAS-bla HEK293, beta-lactamase ratio, antagonist mode; activity, negative = inhibition: at 76.9 µM (top of the series)
# Method in brief: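 Cells were plated at 5000/well and incubated 4 h at 37 C. Compounds were added as 1:2 dilution series, duplicates. 17-beta-estradiol (0.5nM final) was added for 18 h before CCF4 detection.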
# [18] = molecular target: Retinoic acid receptor RXR-alpha (Homo sapiens) (UniProt P19793); assay: qHTS assay for small molecule antagonists of retinoid X receptor alpha signaling (AID 588546; active = well fitted inhibition curve with a large enough effect in the signal ratio, with a control signal flat, not every such curve was filed as active; inconclusive = small, poorly fitted or top-dose-only effect, or effect the other way, or a change in a side signal; inactive = no such curve, though single readings can be large or run the other way; the % refers to the signal ratio; note: potency is the fitted concentration of half-maximal effect); conditions: HEK293T RXRa-UAS-bla, beta-lactamase ratio, antagonist mode
# Method in brief: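 Beta-lactamase reporter inhibition, read as CCF4 fluorescence ratio (ex 405, em 460/530 nm) after 2 h at RT. HEK293T UAS-bla cells, 2500/well, were stimulated with 9-cis-RA at 500 or 100 nM final alongside test compound for 18 h at 37 C.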
smiles,measurement,setting,value
[N-]=[N+]=[N-],Potency,[1],"inconclusive: 501 nM [cytotoxic, full curve]"
same,Potency,[2],active: 2.51 µM
same,"activity change, negative = inhibition",[3],inconclusive: 26.5%
same,"activity change, negative = inhibition",[4],inconclusive: 35.9%
same,"activity, negative = inhibition",[5],inconclusive: 3.83%
same,Potency,[6],inactive
same,activation,[7],inconclusive: 32%
O=[N+]([O-])/C=C/c1ccccc1,Potency,[8],inconclusive: 70.2 µM [single point]
same,Potency,[9],active: 5.01 µM
same,Potency,[1],"inconclusive: 1260 nM [cytotoxic, full curve, poor fit]"
same,Potency,[3],inactive
same,Potency,[10],inactive
same,Potency,[5],inactive
same,activity change % (negative = inhibition),[11],inactive: -15.9%
same,Potency,[6],"inconclusive: 75 µM [activator, single point]"
same,activation,[7],inconclusive: -4.5%
same,Potency,[12],active: 37.6 µM
O=[N+]([O-])c1ccc2c3c(cccc13)CC2,Potency,[8],inactive: > 92 µM
same,Potency,[1],"inconclusive: 50.1 nM [cytotoxic, full curve, poor fit]"
same,Potency,[4],"inconclusive: 31.6 µM [activator, partial curve, poor fit]"
same,Potency,[5],inactive
same,Potency,[6],"inconclusive: 37.6 µM [activator, partial curve] and inconclusive: 34.4 µM [activator, partial curve]"
same,Potency,[7],inactive
same,Potency,[13],"inconclusive: 21.7 µM [activator, full curve, poor fit]"
O=C(Cl)OCc1ccccc1,"activity, negative = inhibition",[5],inconclusive: 12.7%
same,Potency,[14],inactive
same,Potency,[7],inactive
CCOc1cc(C=O)ccc1O,Potency,[9],inactive
same,Potency,[4],"inconclusive: 50.1 µM [side channel, rising, single point]"
same,Potency,[14],"inconclusive: 7.08 µM [inhibitor, full curve]"
same,Potency,[6],"inactive and inconclusive: 75 µM [activator, partial curve, poor fit]"
same,activation,[7],inconclusive: -10.1%
ClC1=C(Cl)C2(Cl)C3C4C=CC(C4)C3C1(Cl)C2(Cl)Cl (centres undefined),Potency,[8],inconclusive: 106 µM [single point]
same,Potency,[9],"inconclusive: 63.1 µM [falling, single point]"
same,Potency,[1],"inconclusive: 39800 nM [cytotoxic, partial curve]"
same,Potency,[15],"inconclusive: 12.6 µM [cytotoxic, full curve]"
same,Potency,[2],"inconclusive: 39.8 µM [cytotoxic, partial curve, poor fit]"
same,Potency,[16],"inconclusive: 44.7 µM [side channel, rising, single point]"
same,"activity change, negative = inhibition",[4],inconclusive: 4.34%
same,Potency,[14],"inconclusive: 50.1 µM [side channel, rising, single point]"
same,activity change % (negative = inhibition),[11],inactive: -26.2%
same,Potency,[7],active: 42.2 µM
same,Potency,[12],"inconclusive: 66.8 µM [cytotoxic, single point]"
[O-][Cl+2]([O-])O,Potency,[17],inactive
same,"activity, negative = inhibition",[5],inconclusive: 14%
same,Potency,[14],inactive
same,Potency,[6],inactive
same,activation,[7],inconclusive: 15.4%
C(=NC1CCCCC1)=NC1CCCCC1,Potency,[8],inconclusive: 39.5 µM [partial curve]
same,Potency,[15],"inconclusive: 0.0008 µM [cytotoxic, full curve, poor fit]"
same,"activity, negative = inhibition",[17],inconclusive: -47%
same,Potency,[16],"inconclusive: 14.1 µM [side channel, rising, partial curve, poor fit]"
same,Potency,[4],"inconclusive: 10 µM [inhibitor, partial curve, poor fit]"
same,"activity change, negative = inhibition",[4],inconclusive: -41.8%
same,Potency,[10],"inconclusive: 25.1 µM [inhibitor, partial curve]"
same,activation,[10],inconclusive: -17.5%
same,Potency,[5],"inconclusive: 7.94 µM [inhibitor, full curve]"
same,"activity, negative = inhibition",[5],inconclusive: -11.5%
same,Potency,[14],"inconclusive: 3.16 µM [inhibitor, full curve] and inconclusive: 25.1 µM [inhibitor, full curve, poor fit]"
same,Potency,[18],"inconclusive: 2.82 µM [inhibitor, full curve] and inconclusive: 31.6 µM [inhibitor, partial curve, poor fit]"
same,activity change % (negative = inhibition),[11],inactive: -20.1% and inactive: -3.06%
same,Potency,[6],active: 24.3 µM
same,Potency,[7],active: 53.1 µM
same,Potency,[12],"inconclusive: 23.7 µM [cytotoxic, full curve]"

# Reference: PubChem BioAssay (NCATS)
